For two variants, response results are on record in article PMC3182250.

B1: GST-Kv7.2-CaMBD fusion protein, wild type (Kv7.2 CaM-binding site G310-L548) [human] / dansyl-calmodulin [modified: dansyl label (sites not stated); dansyl label (sites not stated)] [rat] (parent)
chain 1: not shown
chain 2: GILGSGFALKVQEQHRQKHFEKRRNPAAGLIQSAWRFYATNLSRTDLHSTWQYYERTVTVPMYRLIPPLNQLELLRNLKSKSGLAFRKDPPPEPSPSQKVSLKDRVFSSPRGVAAKGKGSPQAQTVRRSPSADQSLEDSPSKVPKSWSFGDRSRARQAFRIKGAASRQNSEEASLPGEDIVDDKSCPCEFVTEDLTPGLKVSIRAVCVMRFLVSKRKFKESLRPYDVMDVIEQYSAGHL

In the assay the parent is B1. Briefly: dansyl-calmodulin (D-CaM) fluorescence emission. Particulars: with dansyl-calmodulin [modified: dansyl label (sites not given), 12.5 nM D-CaM, 200 nM GST-Kv7.2-CaMBD fusion protein, read off a plot.
Where [1] appears, read: -Ca2+ (10 mM EGTA and no added Ca2+).

For chain 2 I31E, the response reads like this: (+Ca2+ (2.0 µM free Ca2+)) 2%; under setting [1], 2%.
On to chain 2 S202D, for which the response reads like this: (+Ca2+ (2.0 µM free Ca2+)) 3%; under setting [1], 2%.
